The list shows a part of the results. Further columns of the screen follow, without active or inactive calls. Most of these compounds were active or inconclusive in the main read-out, so they are no random draw. The note in brackets gives the kind of curve behind each potency; many fits are weak.
Test: IkB Signaling
Conditions: ABC-DLBCL IkBa-CBG/CBR dual luciferase ratio (green luciferase fused to IkBa over red control in OCI-Ly3 lymphoma cells), 4 h
Method in brief: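 Luminescence ratio of IκBα-fused green versus native red beetle luciferase in OCI-Ly3 cells, 4 h post-doxycycline with compound; red signal alone, scaled from basal (0%) to zero light (-100%), flagged nonspecific or cytotoxic effects.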

[1] = measured here: control luc red channel unless noted

## O=C(O)CCc1ccc(-c2ccccc2)n1Cc1ccco1
[1]
  AC50: 12.6 µM [falling, single point] [measured here: IkB-luc green channel]

## O=C(Cn1c(=O)n(-c2ccccc2)c(=O)c2c3c(sc21)CCCC3)Nc1ccc(F)cc1F
Measured here: IkB-luc green channel
  AC50: 31.6 µM [rising, single point]
Measured here: control luc red channel
  AC50: 15.8 µM [falling, partial curve]

## O=C(NCc1noc2ccccc12)N1CCN(c2ccccc2)CC1
[1]
  AC50: 1.58 µM [rising, partial curve, poor fit]

## CCOc1ccccc1NC(=O)CC1Nc2cc(C)c(C)cc2NC1=O (stereo unspecified)
[1]
  AC50: 3.16 µM [falling, full curve]

## CC1CCN(c2nn3c(=O)c(C(=O)NC(C)C)cnc3s2)CC1
[1]
  AC50: 12.6 µM [rising, partial curve]

## COc1ccc(OC)c(CNS(=O)(=O)c2ccc(-c3coc(C)n3)cc2)c1
[1]
  AC50: 0.316 µM [rising, full curve, poor fit]

## CC(=O)c1cc(-c2ccccc2)n(CC(=O)Nc2ccc(C)c(C)c2)c1C
[1]
  AC50: 39.8 µM [falling, single point]

## CCOc1ccc(CNC(=O)CS(=O)(=O)c2cccc3nsnc23)cc1
[1]
  AC50: 1 µM [rising, full curve]

## CN(C)/C=N/c1sc2c(c1C#N)CCC2
[1]
  AC50: 39.8 µM [rising, single point]

## COc1ccccc1-c1noc(-c2ccc(NC3CCCC3)c([N+](=O)[O-])c2)n1
[1]
  AC50: 25.1 µM [falling, single point]

## O=C(CN1CCc2ccccc2C1)Nc1ccccc1N1CCCCCC1
[1]
  AC50: 15.8 µM [falling, partial curve]

## Cc1cc(=O)n(Cc2ccccc2)c2c1c(C)nn2C
[1]
  AC50: 6.31 µM [rising, single point]

## Cc1ccccc1-n1c(SC/C(O)=C(\C#N)c2nc3ccccc3[nH]2)nnc1-c1ccncc1
[1]
  AC50: 15.8 µM [falling, partial curve]

## Cc1ccc(Nc2nnc(-c3ccc(C)c(S(=O)(=O)N4CCOCC4)c3)c3ccccc23)cc1
[1]
  AC50: 3.16 µM [falling, partial curve]

## CCC(=O)C1=C(c2ccc(OC)c(OC)c2)N(C(=O)CC)n2c(nnc2-c2ccc(C)cc2)S1
[1]
  AC50: 15.8 µM [falling, partial curve]

## CCOC(=O)c1ccc(NC(=O)CSc2nc3ccccc3c(=O)n2CCC(=O)NC2CCCCC2)cc1
[1]
  AC50: 7.94 µM [rising, single point]

## CC1CN(S(=O)(=O)c2cccc(C(=O)OCc3cc(=O)oc4cc(O)ccc34)c2)CC(C)O1 (stereo unspecified)
[1]
  AC50: 15.8 µM [falling, partial curve]

## COc1ccc(Cl)cc1NC(=O)Cn1ccn(-c2cc(C)cc(C)c2)c(=O)c1=O
[1]
  AC50: 0.251 µM [falling, full curve, poor fit]

## CCOc1cccc(CNC(=O)c2ccc(N3CCCC3)c(NC(=O)NCc3ccccc3)c2)c1
[1]
  AC50: 15.8 µM [falling, partial curve]

## Cc1ccccc1CNC(=O)CCS(=O)(=O)c1cc2c3c(c1)CCN3C(=O)CC2
[1]
  AC50: 50.1 nM [rising, full curve] [measured here: IkB-luc green channel]

## CCC[C@@H]1O[C@@H]2C[C@@H]3[C@@H]4CCC5=CC(=O)C=C[C@@]5(C)[C@H]4[C@H](O)C[C@@]3(C)[C@@]2(C(=O)CO)O1
[1]
  AC50: 0.794 nM [rising, full curve, poor fit] [measured here: IkB-luc green channel]

## CCOc1ccc(N(CC(=O)Nc2cccc(Cl)c2)S(=O)(=O)c2c(C)noc2C)cc1
[1]
  AC50: 6.31 µM [falling, partial curve]

## Cc1ccc(Nc2sc(C(=O)c3ccccc3)c(N)c2S(=O)(=O)c2ccccc2)cc1Cl
[1]
  AC50: 7.94 µM [rising, partial curve]

## Cc1cc(OC(C)C(=O)N(Cc2ccc(N(C)C)cc2)Cc2ccco2)ccc1Cl (stereo unspecified)
[1]
  AC50: 15.8 µM [falling, partial curve]

## CC1CCCN(CCCNC(=O)c2ccc3c(c2)N(Cc2ccc(Cl)cc2)C(=O)c2ccccc2S3(=O)=O)C1 (stereo unspecified)
[1]
  AC50: 20 µM [falling, single point]

## Cc1ccccc1C(=O)Nc1cccc(OCc2cc(=O)n3cccc(C)c3n2)c1
[1]
  AC50: 15.8 µM [falling, partial curve]

## O=C(c1cnc(N2CCN(c3ncccn3)CC2)c2ccccc12)N1CCN(c2ccccn2)CC1
[1]
  AC50: 5.01 µM [falling, partial curve]

## COC(=O)c1ccc(NC(=O)c2ccc3c(c2)OCO3)cc1
[1]
  AC50: 6.31 µM [falling, partial curve]

## N#Cc1ccsc1NC(=O)COc1ccc(-c2nnco2)cc1
[1]
  AC50: 15.8 µM [falling, single point]

## O=C(NCc1ccccc1)c1ccc2c(c1)CCN2S(=O)(=O)c1ccc(Cl)cc1
[1]
  AC50: 25.1 µM [falling, single point]

## CCOc1ccc(NC(=O)CSC(N)=O)cc1
[1]
  AC50: 3.16 µM [rising, full curve, poor fit] [measured here: IkB-luc green channel]

## CN1CCN(CCc2ccc(Cl)c(Cl)c2)CC1
[1]
  AC50: 1.26 µM [rising, full curve]

## COc1ccc2cc3c(N)nn(C(=O)c4ccccc4Cl)c3nc2c1
[1]
  AC50: 3.98 µM [falling, partial curve]

## COc1ccc(-c2noc(CN(C(=O)C(C)Oc3ccc(C)cc3)C(C)C)n2)cc1 (stereo unspecified)
[1]
  AC50: 31.6 µM [falling, partial curve]

## Cc1cccc(CCNC(=O)c2cc3c(s2)-c2c(C)cccc2OC3)c1
[1]
  AC50: 0.158 µM [falling, full curve, poor fit]

## Cc1ccc2c(c1)N(C(=O)Nc1cccc3c1CCCC3)CCO2
[1]
  AC50: 0.126 µM [falling, full curve, poor fit]

## CCCN1CCN(C(=O)Cn2c(-c3cccs3)cc3cc(F)ccc32)CC1
[1]
  AC50: 25.1 µM [falling, partial curve]

## O=C(NCCc1ccccc1)c1ccc(Nc2nc3ccccc3n3nnnc23)cc1
[1]
  AC50: 10 µM [falling, partial curve]

## COc1ccc(-c2noc(CSc3nnc(C)n3-c3cccc(C)c3)n2)cc1
[1]
  AC50: 20 µM [falling, single point]

## COc1cc(C(=O)NCCc2csc(-c3ccc(Cl)cc3)n2)cc(OC)c1OC
[1]
  AC50: 15.8 µM [falling, partial curve]

## COc1ccc(O)c(C2=Nc3ccccc3N=C(c3ccccc3)C2)c1
[1]
  AC50: 10 µM [falling, partial curve]

## CCOC(=O)c1nc(Nc2ccc(C(=O)OC(C)C)cc2)c2ccccc2n1
[1]
  AC50: 12.6 µM [falling, partial curve]

## COc1ccccc1NC(=O)c1oc2ccccc2c1NC(=O)Cc1ccccc1
[1]
  AC50: 39.8 µM [falling, partial curve]

## CC(O)Cc1nsc(NC(=O)c2cccs2)n1 (stereo unspecified)
[1]
  AC50: 20 µM [falling, single point]

## O=C(CN1C(=O)CC(c2ccccc2)=Nc2ccccc21)Nc1ccc(Br)cc1
[1]
  AC50: 7.94 µM [falling, full curve, poor fit]

## COc1cc(NC(=O)Cc2nn(C)c(=O)c3ccccc23)cc(OC)c1
[1]
  AC50: 12.6 µM [falling, partial curve]

## Oc1ccccc1Nc1nc2ccccc2n2nnnc12
[1]
  AC50: 0.316 µM [falling, full curve]

## COc1ccc(-c2[nH]ncc2-c2ccc3c(c2)OCCO3)c(O)c1
[1]
  AC50: 3.16 µM [falling, partial curve]

## COc1ccc(-c2cnc(SCC(=O)Nc3cc(C)on3)n2Cc2ccco2)cc1
[1]
  AC50: 12.6 µM [falling, partial curve]

## O=C(Cn1c(=O)n(Cc2nc(-c3ccccc3)no2)c(=O)c2ccccc21)Nc1cccc(Cl)c1
[1]
  AC50: 3.16 µM [falling, full curve]

## Cc1ccc(C)c(Nc2nnc(-c3ccc(C)c(S(=O)(=O)NCC4CCCO4)c3)c3ccccc23)c1 (stereo unspecified)
[1]
  AC50: 20 µM [falling, partial curve]

## CCOc1ccc(N2C(=O)c3[nH]nc(-c4ccc(OC)cc4)c3C2c2cccs2)cc1 (stereo unspecified)
[1]
  AC50: 20 µM [falling, partial curve]

## COc1ccccc1CN(Cc1cc2cc(C)ccc2[nH]c1=O)Cc1nnnn1CC1CCCO1 (stereo unspecified)
[1]
  AC50: 7.94 µM [falling, full curve]

## Cc1cccc(NC(=O)CN2CCCN(S(=O)(=O)c3ccc(Br)s3)CC2)c1
[1]
  AC50: 12.6 µM [falling, partial curve]

## CN(C)CCC(=O)[C@@]1(O)CC[C@H]2[C@H]3CC=C4C[C@@H](O)CC[C@]4(C)[C@H]3CC[C@]21C
[1]
  AC50: 6.31 µM [rising, partial curve] [measured here: IkB-luc green channel]

## O=C(NCCC1=CCCCC1)C1CCN(C(=O)N2CCOc3ccc(Cl)cc32)CC1
[1]
  AC50: 25.1 µM [falling, single point]

## COc1ccccc1C1C=C(c2ccc(C(C)C)cc2)Nc2nnnn21 (stereo unspecified)
[1]
  AC50: 25.1 µM [falling, partial curve]

## Fc1ccc(-n2ncc3c(Nc4cccc(Cl)c4)ncnc32)cc1
[1]
  AC50: 15.8 µM [falling, partial curve]

## COc1cc(OC)cc(-c2nc3nc(C)c(CCC(=O)Nc4ccc(C)cc4C)c(C)n3n2)c1
[1]
  AC50: 20 µM [falling, single point]

## COc1ccc(C(=O)COC(=O)CN2CC(=O)Oc3ccccc32)cc1Br
[1]
  AC50: 2.51 µM [falling, partial curve]

Source: PubChem BioAssay AID445 (National Center for Advancing Translational Sciences (NCATS), 2006)
